Laboratory results reported in the supplement of paper PMC12067093, “Discovery and optimisation of a covalent ligand for TRIM25 and its application to targeted protein ubiquitination” (Chemical Science, 2025).
This is one part of the list.

Sequences of proteins named here, by UniProt entry; tags and fusion partners are left off. A change or cut given only in a name is not applied to a line headed by its entry.
UniProt P55265: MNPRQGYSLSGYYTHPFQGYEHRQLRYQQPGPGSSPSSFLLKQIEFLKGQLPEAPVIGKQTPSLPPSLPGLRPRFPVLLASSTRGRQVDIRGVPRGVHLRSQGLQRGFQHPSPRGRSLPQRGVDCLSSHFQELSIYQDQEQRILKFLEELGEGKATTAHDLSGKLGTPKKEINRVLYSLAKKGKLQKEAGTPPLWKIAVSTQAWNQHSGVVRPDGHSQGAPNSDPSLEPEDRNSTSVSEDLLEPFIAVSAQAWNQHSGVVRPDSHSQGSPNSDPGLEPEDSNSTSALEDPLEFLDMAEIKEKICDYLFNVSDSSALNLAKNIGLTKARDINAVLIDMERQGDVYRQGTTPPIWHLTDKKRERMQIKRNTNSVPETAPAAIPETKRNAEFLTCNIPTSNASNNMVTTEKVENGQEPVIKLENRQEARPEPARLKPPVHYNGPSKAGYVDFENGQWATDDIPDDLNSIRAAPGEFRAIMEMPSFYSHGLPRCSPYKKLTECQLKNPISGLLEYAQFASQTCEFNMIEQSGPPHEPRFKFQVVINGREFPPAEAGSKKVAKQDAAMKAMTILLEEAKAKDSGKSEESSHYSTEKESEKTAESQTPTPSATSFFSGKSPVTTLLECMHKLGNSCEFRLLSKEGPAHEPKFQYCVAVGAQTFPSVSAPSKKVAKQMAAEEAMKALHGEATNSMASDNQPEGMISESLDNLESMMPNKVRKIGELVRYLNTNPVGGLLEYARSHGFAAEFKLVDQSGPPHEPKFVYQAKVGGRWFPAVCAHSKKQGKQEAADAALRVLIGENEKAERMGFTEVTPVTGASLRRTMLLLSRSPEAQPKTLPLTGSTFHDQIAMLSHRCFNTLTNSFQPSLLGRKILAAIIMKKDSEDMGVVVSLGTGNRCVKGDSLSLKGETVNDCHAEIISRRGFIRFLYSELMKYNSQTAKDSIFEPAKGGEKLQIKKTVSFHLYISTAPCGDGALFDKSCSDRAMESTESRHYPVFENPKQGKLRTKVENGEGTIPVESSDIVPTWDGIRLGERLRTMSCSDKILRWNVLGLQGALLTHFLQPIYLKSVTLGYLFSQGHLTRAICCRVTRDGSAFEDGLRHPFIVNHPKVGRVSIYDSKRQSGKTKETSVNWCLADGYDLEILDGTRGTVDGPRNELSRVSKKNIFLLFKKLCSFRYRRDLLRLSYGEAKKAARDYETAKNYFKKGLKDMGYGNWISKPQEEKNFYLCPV
UniProt P12814, whole entry, looked up: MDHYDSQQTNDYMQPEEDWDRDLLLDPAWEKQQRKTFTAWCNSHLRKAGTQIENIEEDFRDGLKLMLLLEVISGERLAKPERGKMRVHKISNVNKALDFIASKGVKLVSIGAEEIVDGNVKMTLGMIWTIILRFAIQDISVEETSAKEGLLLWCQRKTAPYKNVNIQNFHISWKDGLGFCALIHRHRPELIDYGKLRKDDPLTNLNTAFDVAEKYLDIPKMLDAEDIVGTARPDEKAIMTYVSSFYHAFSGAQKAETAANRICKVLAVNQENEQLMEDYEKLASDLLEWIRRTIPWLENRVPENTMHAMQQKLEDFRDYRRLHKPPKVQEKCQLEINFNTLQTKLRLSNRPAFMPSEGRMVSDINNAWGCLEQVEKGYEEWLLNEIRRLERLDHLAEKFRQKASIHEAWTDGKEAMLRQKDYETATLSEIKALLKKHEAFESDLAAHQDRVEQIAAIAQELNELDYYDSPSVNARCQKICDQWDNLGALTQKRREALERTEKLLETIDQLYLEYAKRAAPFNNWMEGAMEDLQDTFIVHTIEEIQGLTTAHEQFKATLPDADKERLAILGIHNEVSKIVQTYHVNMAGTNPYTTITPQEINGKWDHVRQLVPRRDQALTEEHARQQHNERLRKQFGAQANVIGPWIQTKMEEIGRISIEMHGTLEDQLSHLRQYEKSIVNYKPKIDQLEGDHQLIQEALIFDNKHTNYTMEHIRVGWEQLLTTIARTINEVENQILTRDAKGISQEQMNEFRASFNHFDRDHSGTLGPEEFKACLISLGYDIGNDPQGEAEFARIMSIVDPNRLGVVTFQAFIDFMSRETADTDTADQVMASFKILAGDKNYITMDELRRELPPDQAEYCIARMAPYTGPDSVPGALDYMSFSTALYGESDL
UniProt P30566: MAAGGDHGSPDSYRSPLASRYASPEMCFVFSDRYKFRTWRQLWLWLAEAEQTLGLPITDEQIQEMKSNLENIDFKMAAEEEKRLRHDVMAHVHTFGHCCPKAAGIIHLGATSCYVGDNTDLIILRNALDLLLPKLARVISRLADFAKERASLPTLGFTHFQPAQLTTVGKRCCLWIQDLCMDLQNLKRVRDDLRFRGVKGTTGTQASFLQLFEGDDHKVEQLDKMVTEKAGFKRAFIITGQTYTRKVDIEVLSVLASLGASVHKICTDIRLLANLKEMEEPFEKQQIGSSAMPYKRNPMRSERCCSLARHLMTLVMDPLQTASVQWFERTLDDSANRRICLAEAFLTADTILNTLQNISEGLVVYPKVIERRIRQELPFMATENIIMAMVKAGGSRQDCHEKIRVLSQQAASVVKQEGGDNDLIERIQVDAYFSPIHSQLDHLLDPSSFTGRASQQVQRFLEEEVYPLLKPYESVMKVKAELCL
UniProt O95490: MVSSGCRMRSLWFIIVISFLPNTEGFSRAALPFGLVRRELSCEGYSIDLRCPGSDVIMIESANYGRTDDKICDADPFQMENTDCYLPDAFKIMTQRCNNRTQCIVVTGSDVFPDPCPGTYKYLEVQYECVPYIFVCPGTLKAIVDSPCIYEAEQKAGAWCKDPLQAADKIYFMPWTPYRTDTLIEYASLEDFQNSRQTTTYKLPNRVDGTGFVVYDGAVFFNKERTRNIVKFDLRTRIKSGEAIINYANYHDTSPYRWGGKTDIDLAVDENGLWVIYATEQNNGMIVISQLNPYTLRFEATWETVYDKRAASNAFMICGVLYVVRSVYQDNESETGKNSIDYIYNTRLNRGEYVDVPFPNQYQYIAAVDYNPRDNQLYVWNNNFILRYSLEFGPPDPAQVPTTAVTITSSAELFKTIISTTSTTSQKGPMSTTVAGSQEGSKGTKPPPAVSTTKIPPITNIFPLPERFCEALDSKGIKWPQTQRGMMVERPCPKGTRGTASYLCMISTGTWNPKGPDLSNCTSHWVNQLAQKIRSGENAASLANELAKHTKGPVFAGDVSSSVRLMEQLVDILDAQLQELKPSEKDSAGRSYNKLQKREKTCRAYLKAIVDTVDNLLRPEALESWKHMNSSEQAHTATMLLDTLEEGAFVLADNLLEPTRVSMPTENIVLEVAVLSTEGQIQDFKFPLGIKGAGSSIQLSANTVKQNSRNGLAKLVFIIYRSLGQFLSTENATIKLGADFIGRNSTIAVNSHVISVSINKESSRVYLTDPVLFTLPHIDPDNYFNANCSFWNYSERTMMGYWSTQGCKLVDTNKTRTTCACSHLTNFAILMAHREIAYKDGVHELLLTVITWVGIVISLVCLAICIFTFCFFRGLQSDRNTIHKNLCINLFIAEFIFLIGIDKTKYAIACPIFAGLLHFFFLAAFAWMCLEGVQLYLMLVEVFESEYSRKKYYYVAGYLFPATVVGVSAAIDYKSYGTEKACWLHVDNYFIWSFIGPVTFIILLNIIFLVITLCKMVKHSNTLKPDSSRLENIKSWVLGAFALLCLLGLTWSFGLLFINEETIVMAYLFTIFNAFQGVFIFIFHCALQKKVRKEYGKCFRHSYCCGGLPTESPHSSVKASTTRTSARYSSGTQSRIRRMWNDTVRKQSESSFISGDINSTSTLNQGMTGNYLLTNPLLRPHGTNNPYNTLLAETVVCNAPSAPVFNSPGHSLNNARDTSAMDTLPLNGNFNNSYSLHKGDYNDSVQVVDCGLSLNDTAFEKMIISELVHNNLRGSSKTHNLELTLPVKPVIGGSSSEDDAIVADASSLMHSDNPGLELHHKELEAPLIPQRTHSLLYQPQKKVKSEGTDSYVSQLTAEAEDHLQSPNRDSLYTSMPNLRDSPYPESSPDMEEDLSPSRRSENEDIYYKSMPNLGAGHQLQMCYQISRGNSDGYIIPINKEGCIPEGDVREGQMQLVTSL
UniProt O60488: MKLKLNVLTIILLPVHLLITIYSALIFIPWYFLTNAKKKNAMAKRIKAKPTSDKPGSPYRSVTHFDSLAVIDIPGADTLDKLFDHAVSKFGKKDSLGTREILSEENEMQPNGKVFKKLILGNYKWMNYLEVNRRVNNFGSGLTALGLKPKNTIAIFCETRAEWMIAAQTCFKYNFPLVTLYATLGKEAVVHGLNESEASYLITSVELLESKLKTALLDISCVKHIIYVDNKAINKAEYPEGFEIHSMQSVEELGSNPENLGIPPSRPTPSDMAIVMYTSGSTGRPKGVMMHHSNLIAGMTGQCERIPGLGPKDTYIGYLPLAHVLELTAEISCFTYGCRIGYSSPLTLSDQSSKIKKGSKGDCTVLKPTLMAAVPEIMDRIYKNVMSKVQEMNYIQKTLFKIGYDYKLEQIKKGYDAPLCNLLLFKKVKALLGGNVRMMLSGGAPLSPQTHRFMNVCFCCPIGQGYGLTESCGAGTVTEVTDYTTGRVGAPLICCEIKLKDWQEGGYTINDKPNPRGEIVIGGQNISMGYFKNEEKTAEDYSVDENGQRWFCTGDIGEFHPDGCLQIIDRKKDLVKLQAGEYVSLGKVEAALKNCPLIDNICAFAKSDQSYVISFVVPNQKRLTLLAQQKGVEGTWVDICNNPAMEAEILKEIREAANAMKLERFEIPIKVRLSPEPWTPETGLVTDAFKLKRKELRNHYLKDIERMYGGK
UniProt Q9BSE5: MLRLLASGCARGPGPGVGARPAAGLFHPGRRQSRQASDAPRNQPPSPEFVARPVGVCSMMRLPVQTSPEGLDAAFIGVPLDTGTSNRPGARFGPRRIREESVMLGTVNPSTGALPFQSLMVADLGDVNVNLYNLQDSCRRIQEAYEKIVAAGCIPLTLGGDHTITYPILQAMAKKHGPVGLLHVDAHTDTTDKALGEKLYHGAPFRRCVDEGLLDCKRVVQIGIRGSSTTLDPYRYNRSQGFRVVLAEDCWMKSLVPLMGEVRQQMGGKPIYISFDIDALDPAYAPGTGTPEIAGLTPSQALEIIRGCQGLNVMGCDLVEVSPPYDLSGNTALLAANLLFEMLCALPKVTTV
UniProt Q9GZN1, whole entry, looked up: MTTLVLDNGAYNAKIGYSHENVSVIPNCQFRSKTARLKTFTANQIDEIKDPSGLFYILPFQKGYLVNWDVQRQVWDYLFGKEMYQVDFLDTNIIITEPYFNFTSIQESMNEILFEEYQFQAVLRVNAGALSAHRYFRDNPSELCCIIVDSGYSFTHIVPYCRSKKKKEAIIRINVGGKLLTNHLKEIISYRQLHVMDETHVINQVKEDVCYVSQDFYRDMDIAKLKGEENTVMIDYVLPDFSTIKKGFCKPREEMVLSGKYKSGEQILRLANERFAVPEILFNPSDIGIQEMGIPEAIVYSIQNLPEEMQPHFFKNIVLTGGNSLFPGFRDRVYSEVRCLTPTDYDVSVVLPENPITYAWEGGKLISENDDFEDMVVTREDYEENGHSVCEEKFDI
UniProt Q53H12: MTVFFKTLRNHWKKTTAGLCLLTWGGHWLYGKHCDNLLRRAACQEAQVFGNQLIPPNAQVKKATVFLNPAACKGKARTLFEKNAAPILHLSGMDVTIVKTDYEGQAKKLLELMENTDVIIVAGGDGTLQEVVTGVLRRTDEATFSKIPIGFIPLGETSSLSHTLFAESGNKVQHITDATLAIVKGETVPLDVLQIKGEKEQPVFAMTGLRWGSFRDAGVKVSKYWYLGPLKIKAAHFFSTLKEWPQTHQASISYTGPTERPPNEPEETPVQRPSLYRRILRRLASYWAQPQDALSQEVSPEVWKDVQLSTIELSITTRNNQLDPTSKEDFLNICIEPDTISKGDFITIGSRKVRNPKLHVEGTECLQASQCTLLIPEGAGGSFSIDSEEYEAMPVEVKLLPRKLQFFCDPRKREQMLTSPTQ
UniProt P11766: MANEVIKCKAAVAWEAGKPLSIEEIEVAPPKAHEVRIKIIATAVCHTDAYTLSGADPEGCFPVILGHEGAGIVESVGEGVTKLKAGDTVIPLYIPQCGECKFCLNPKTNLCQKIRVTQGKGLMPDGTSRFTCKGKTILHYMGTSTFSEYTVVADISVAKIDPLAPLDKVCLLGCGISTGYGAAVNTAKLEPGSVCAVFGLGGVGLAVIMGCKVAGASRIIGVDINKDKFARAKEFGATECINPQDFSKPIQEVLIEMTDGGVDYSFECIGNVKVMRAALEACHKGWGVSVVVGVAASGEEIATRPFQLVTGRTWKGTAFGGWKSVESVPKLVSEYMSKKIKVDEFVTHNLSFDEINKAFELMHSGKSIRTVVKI
UniProt Q96SZ5, whole entry, looked up: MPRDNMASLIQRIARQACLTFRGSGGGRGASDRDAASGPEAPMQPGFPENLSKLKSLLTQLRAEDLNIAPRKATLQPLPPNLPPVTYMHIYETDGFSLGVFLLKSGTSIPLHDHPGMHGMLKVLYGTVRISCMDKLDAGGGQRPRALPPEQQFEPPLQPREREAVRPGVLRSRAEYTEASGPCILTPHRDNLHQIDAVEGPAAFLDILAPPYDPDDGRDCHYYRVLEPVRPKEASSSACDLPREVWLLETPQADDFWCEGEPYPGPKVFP

Compound: Cc1cc(ccc1-c1ccccc1)C(=O)N1CCCN(CC1)C(=O)CCl [compound 10]
Experiment: probe-labelled cysteine peptide fold change vs DMSO (competition) (log2 fold change); higher = less target engagement (more negative = stronger competition)
Settings: THP-1, incubation time: 4 h
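Also: competitive profiling in live THP-1 cells: cysteine peptides tagged with an iodoacetamide desthiobiotin (IA-DTB) probe, intensity after compound treatment relative to DMSO-treated cells.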

| Target | probe-labelled cysteine peptide fold change (10 µM) | probe-labelled cysteine peptide fold change (50 µM) |
| --- | --- | --- |
| ADAR_P55265_125_GVDCLSSHFQELSIYQDQEQR (UniProt P55265) | -0.101 | -0.162 |
| ACTN1_P12814_774_ACLISLGYDIGNDPQGEAEFAR (UniProt P12814) | 0.292 | 0.147 |
| ACTN4_O43707_793_ACLISLGYDVENDR (UniProt O43707) | 0.283 | 0.288 |
| ACTR2_P61160_11_KVVVCDNGTGFVK (UniProt P61160) | -0.129 | -0.208 |
| ADSL_P30566_266_ICTDIR (UniProt P30566) | 0.222 | 0.0905 |
| ACTL6A_O96019_206_SPLAGDFITMQCR (UniProt O96019) | 0.231 | 0.221 |
| ADD1_P35611_253_CGLLPISPEALSLGEVAYHDYHGILVDEEEK (UniProt P35611) | 0.0833 | 0.00593 |
| ADAT3_Q96EY9_249_GTYDFRPFPACSFAPAAAPQAVR (UniProt Q96EY9) | 0.122 | 0.397 |
| ADGRL2_O95490_1250_GDYNDSVQVVDCGLSLNDTAFEK (UniProt O95490) | -0.311 | -0.28 |
| ACTN4_O43707_499_ICDQWDALGSLTHSRR (UniProt O43707) | 0.0906 | -0.0707 |
| ACSL4_O60488_363_GDCTVLKPTLMAAVPEIMDR (UniProt O60488) | 0.108 | -0.0558 |
| AGMAT_Q9BSE5_250_VVLAEDCWMK (UniProt Q9BSE5) | 0.0518 | -0.197 |
| AFG3L2_Q9Y4W6_525_KLASLTPGFSGADVANVCNEAALIAAR (UniProt Q9Y4W6) | -0.0223 | -0.317 |
| ACTR10_Q9NZ32_215_TCFVSDLK (UniProt Q9NZ32) | -0.0292 | 0.224 |
| ADAM17_P78536_630_KGKPCTVGFCDMNGK (UniProt P78536) | -0.213 | -0.565 |
| ACTR6_Q9GZN1_210_EDVCYVSQDFYR (UniProt Q9GZN1) | -0.0424 | 0.291 |
| AGK_Q53H12_34_HCDNLLR (UniProt Q53H12) | -0.149 | 0.124 |
| ADD1_P35611_236_CVVHIHTPAGAAVSAMK (UniProt P35611) | 0.0419 | -0.0683 |
| AGA_P20933_163_NCQPNYWR (UniProt P20933) | -0.21 | -0.114 |
| ADAR_P55265_773_WFPAVCAHSK (UniProt P55265) | -0.121 | -0.262 |
| AFG3L2_Q9Y4W6_402_KNAPCILFIDEIDAVGR (UniProt Q9Y4W6) | -0.0536 | -0.451 |

| Target | probe-labelled cysteine peptide fold change (10 µM) | probe-labelled cysteine peptide fold change (50 µM) |
| --- | --- | --- |
| AGO2_Q9UKV8_272_VEITHCGQMK (UniProt Q9UKV8) | -0.0568 | -0.0776 |
| ADAM9_Q13443_575_LQCENVQEIPVFGIVPAIIQTPSR (UniProt Q13443) | 0.455 | 0.239 |
| AFF1_P51825_355_MPSQSVEQTYSNEVHCVEEILK (UniProt P51825) | -0.261 | -0.257 |
| AGGF1_Q8N302_494_CDPYVLEHGDEVK (UniProt Q8N302) | -0.119 | 0.156 |
| ADH5_P11766_97+100_AGDTVIPLYIPQCGECK (UniProt P11766) | 0.0159 | -0.657 |
| AFG3L2_Q9Y4W6_402_NAPCILFIDEIDAVGR (UniProt Q9Y4W6) | 0.163 | 0.357 |
| ACP2_P11117_345_APWPLSLPGCPHR (UniProt P11117) | -0.126 | 0.269 |
| ADAR_P55265_392_RNAEFLTCNIPTSNASNNMVTTEK (UniProt P55265) | -0.0948 | -0.443 |
| ADRM1_Q16186_121_TDQDEEHCR (UniProt Q16186) | -0.244 | 0.172 |
| ACSL3_O95573_503+504_VGAPLVCCEIK (UniProt O95573) | 0.0275 | -0.45 |
| ADAM10_O14672_632_TITLQPGSPCNDFR (UniProt O14672) | -0.0399 | -0.277 |
| ADO_Q96SZ5_239_EASSSACDLPR (UniProt Q96SZ5) | -0.271 | -0.501 |
| ACSL4_O60488_221_TALLDISCVK (UniProt O60488) | 0.177 | 0.0446 |
| ACSL4_O60488_494_VGAPLICCEIK (UniProt O60488) | -0.0012 | -0.649 |
| AGAP3_Q96P47_263_KQQLAIGPCK (UniProt Q96P47) | -0.377 | -0.702 |
| ACTN4_O43707_879_ELPPDQAEYCIAR (UniProt O43707) | 0.0241 | -0.0546 |
| ADCY9_O60503_654_SEAGAEGGAPQNGCQDEHK (UniProt O60503) | -0.197 | -0.502 |
| ADAR_P55265_909_GDSLSLKGETVNDCHAEIISR (UniProt P55265) | -0.134 | -0.846 |
| ACOX1_Q15067_392_AFTSWTANTGIEACR (UniProt Q15067) | 0.0592 | 0.0993 |
| AGK_Q53H12_408_LQFFCDPR (UniProt Q53H12) | -0.143 | 0.247 |
| ADK_P55263_140_AAEAHVDAHYYEQNEQPTGTCAACITGDNR (UniProt P55263) | -0.06 | 0.248 |

| Target | probe-labelled cysteine peptide fold change (10 µM) | probe-labelled cysteine peptide fold change (50 µM) |
| --- | --- | --- |
| ADH5_P11766_100_AGDTVIPLYIPQCGECK (UniProt P11766) | 0.208 | -0.238 |
| ADGRL3_Q9HAR2_135_VFLCPGLLK (UniProt Q9HAR2) | 0.0697 | 0.0353 |
| ADD1_P35611_430_YSDVEVPASVTGYSFASDGDSGTCSPLR (UniProt P35611) | -0.202 | -0.334 |
| ACY1_Q03154_49_QLGLGCQK (UniProt Q03154) | 0.128 | 0.132 |
| ACSF2_Q96CM8_553_MGEEICACIR (UniProt Q96CM8) | -0.00986 | -0.39 |
| ADH5_P11766_111_TNLCQK (UniProt P11766) | -0.0131 | -0.432 |
| ADGRA2_Q96PE1_196_VVDLGTEFLTCDCHLR (UniProt Q96PE1) | 0.218 | 0.00643 |
| AFG1L_Q8WV93_72_ALAVCHGPLDHYDFLIK (UniProt Q8WV93) | 0.0611 | 0.142 |
| ACTR3_P61158_394_YAVWFGGSMLASTPEFYQVCHTKK (UniProt P61158) | -0.25 | -0.43 |
| ADPRH_P54922_129_IPFNSHEGGCGAAMR (UniProt P54922) | -0.0992 | -0.00192 |
| ADCY7_P51828_382_VGIHSGNVLCGVIGLR (UniProt P51828) | 0.0372 | 0.0795 |
| ACTR6_Q9GZN1_28_IGYSHENVSVIPNCQFR (UniProt Q9GZN1) | 0.029 | -0.0803 |
| ADH5_P11766_97_AGDTVIPLYIPQCGECK (UniProt P11766) | -0.0779 | -0.147 |
| ACSL1_P33121_132_QVAELSECIGSALIQK (UniProt P33121) | 0.021 | 0.0843 |
| ACTR3_P61158_34_LGYAGNTEPQFIIPSCIAIK (UniProt P61158) | -0.0452 | 0.22 |
| ACTN4_O43707_495_CQKICDQWDALGSLTHSRR (UniProt O43707) | -0.0414 | -0.476 |
| ADK_P55263_160_SLIANLAAANCYK (UniProt P55263) | -0.0119 | -0.156 |
| ADAM15_Q13444_583_DAICGQLQCQTGR (UniProt Q13444) | 0.0282 | 0.308 |
| AGMAT_Q9BSE5_216_CVDEGLLDCKR (UniProt Q9BSE5) | 0.167 | -0.345 |
| ADGRL2_O95490_42_RELSCEGYSIDLR (UniProt O95490) | 0.175 | 0.0767 |
| ADAR_P55265_622_SPVTTLLECMHK (UniProt P55265) | 0.00696 | -0.207 |

| Target | probe-labelled cysteine peptide fold change (10 µM) | probe-labelled cysteine peptide fold change (50 µM) |
| --- | --- | --- |
| AFTPH_Q6ULP2_659_IFEACFPSILVPDAEEEVTSLK (UniProt Q6ULP2) | 0.0219 | -0.0706 |
| ADAR_P55265_649_FQYCVAVGAQTFPSVSAPSKK (UniProt P55265) | 0.159 | -0.443 |
| ADPGK_Q9BRR6_470_EGISFHFTPVLVCKDPIR (UniProt Q9BRR6) | -0.0963 | -0.485 |
| ACTR2_P61160_221_LCYVGYNIEQEQK (UniProt P61160) | 0.175 | 0.0528 |
| ADSL_P30566_173_CCLWIQDLCMDLQNLK (UniProt P30566) | -0.0248 | 0.431 |
| ACOX3_O15254_426_EACGGHGYLAMNR (UniProt O15254) | -0.132 | -0.173 |
| ACSF2_Q96CM8_254_QHLDQLQYNQQFLSCHDPINIQFTSGTTGSPK (UniProt Q96CM8) | -0.144 | -0.457 |
| ADSL_P30566_180_CCLWIQDLCMDLQNLK (UniProt P30566) | -0.0411 | 0.389 |
| AGL_P35573_172_SCYSLANQLELNPDFSRPNRK (UniProt P35573) | 0.0894 | 0.0496 |
| ACTN1_P12814_476+480_CQKICDQWDNLGALTQKRR (UniProt P12814) | 0.0377 | 0.0276 |
| ADK_P55263_106_AATFFGCIGIDK (UniProt P55263) | 0.11 | 0.0122 |
| ACSL4_O60488_564_WFCTGDIGEFHPDGCLQIIDR (UniProt O60488) | 0.122 | 0.17 |
| ACTR5_Q9H9F9_48_AGWACPGQDPGPEPR (UniProt Q9H9F9) | 0.0426 | -0.0673 |
| ACSF2_Q96CM8_122_AASGLLSIGLCK (UniProt Q96CM8) | -0.0881 | -0.143 |
| ACTR3_P61158_12_LPACVVDCGTGYTK (UniProt P61158) | -0.12 | -0.184 |
| ACSS1_Q9NUB1_422_TLGSVGEPINCEAWEWLHR (UniProt Q9NUB1) | -0.355 | -0.341 |
| ACTR8_Q9H981_179_WTNTSHHPEYLVGEEALYVNPLDCYNIHWPIR (UniProt Q9H981) | -0.0279 | 0.232 |
| ADSS_P30520_338_CGWLDLVLLK (UniProt P30520) | 0.0389 | 0.313 |
| ADH5_P11766_282_AALEACHK (UniProt P11766) | -0.00579 | -0.00597 |
| ADAR_P55265_649_FQYCVAVGAQTFPSVSAPSK (UniProt P55265) | 0.13 | -0.419 |
| ACTR3_P61158_408_DYEEIGPSICR (UniProt P61158) | 0.0427 | -0.00255 |
